The text below walks through data of paper PMC11996870.

By UniProt entry, the sequences of proteins in these tests, tags left out. Residues count along the entry.
UniProt P20827, residues 19-182: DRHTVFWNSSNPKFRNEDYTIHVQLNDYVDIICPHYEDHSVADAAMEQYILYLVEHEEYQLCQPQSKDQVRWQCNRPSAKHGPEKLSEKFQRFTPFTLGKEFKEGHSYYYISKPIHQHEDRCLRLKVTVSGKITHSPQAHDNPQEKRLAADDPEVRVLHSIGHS
UniProt P29317, residues 24-976: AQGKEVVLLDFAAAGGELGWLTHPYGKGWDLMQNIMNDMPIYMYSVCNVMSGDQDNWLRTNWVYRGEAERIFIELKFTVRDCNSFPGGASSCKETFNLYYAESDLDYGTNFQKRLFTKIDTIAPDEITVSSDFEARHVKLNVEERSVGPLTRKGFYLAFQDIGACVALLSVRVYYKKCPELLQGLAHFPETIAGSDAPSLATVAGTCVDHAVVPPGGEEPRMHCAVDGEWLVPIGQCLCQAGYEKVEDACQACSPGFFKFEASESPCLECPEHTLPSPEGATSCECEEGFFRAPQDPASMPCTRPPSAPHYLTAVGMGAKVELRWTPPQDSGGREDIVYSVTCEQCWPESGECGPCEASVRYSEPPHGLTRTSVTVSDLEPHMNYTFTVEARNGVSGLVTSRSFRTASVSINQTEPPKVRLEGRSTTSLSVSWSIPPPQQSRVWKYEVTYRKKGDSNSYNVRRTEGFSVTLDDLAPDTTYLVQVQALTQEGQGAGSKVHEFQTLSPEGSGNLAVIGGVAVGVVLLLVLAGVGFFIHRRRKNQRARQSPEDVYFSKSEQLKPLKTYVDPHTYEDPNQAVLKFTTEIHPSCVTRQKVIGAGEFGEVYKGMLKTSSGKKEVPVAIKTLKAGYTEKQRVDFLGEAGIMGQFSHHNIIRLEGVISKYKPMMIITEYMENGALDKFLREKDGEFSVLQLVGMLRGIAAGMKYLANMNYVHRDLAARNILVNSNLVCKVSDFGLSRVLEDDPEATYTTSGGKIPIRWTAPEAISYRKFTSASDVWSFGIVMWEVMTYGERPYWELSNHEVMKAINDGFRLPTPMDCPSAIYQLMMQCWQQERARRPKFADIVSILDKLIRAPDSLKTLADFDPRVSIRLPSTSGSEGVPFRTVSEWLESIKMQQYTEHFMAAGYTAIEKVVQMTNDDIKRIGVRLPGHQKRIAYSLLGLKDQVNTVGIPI

Experiment [1] concerns the target EFNA1 (human (endogenous in SiHa and HCC-94)) (UniProt P20827). As to the kind of experiment: co-IP; immunoprecipitation with anti-EFNA1 or anti-EphA2 antibodies from SiHa and HCC-94 cells, Western blot; endogenous proteins.
A further experiment deals with EFNA1-HA (human) (UniProt P20827). As to the kind of experiment: co-IP; SiHa cells cotransfected with EFNA1-HA and FLAG-tagged EphA2 wild type or truncated mutants; immunoprecipitation with anti-HA antibodies (forward) and reverse co-IP.
In the next experiment the target is T1, EFNA2 (UniProt O43921).
T1 sequence: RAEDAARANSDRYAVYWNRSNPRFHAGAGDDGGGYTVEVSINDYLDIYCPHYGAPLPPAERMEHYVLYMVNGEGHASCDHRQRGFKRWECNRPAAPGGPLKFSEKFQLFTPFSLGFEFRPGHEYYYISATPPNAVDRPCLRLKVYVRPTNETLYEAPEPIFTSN
As to the kind of experiment: co-IP; forward and reverse IP of EphA2 with EFNA2 or EFNA5 (Supplemental Figure 14).

These are yes or no findings as the source states them, for the method shown. In cells and extracts the contact can be indirect. Some results given as binding are weak or reduced against the parent protein; the word gives no strength.

“EphA2 (from UniProt P29317 24-976) (receptor)”: the binding entry in experiment [1] is listed as “binds”.

In the case of “FLAG-tagged wild-type EphA2 (EphA2^WT) (from UniProt P29317 24-976) (receptor)”, the binding result with EFNA1-HA (human) is given as “binds”.

Turning to “EphA2 (as used in the IP experiments with EFNA2 and EFNA5) (from UniProt P29317 24-976) (receptor)”, the binding entry with EFNA2 was “no binding”.
